At least one compound was matched to its structure with a doubt left.
Tested on: U87MG tumor spheroids
Assay: 3D tumor spheroid model
Format: cell-based, human
Details: drug delivered by CAR-neutrophils@R—SiO2 NPs
Description: A three-dimensional (3D) tumor spheroid model was then employed to evaluate the tumor-penetration ability of R—SiO2-TPZ NP-loaded CAR-neutrophils (FIG. 6G). 3D tumor spheroids were generated by the hanging-drop method. Briefly, U87MG cells were suspended in minimum essential medium (MEM) medium with 10% FBS and 0.3% methylcellulose at 2×10^6 cells/mL and deposited onto an inverted lid of 96-well plate as an individual drop using a 20 μL pipettor. The cover lid was then placed back onto the PBS-filled bottom chamber, and the whole plate was incubated at 37° C. and 5% CO2. The hanging drops were monitored daily until cell aggregates were formed in 5-7 days. Each cell aggregate was transferred to a single well of a 24-well plate for subsequent experiments.
To assess the tumor penetration capability of CLTX-CAR neutrophils, 2×10^5 neutrophils/well were added to the wells of 24-well plate and incubated with tumor spheroids. After co-incubation for 24 hours, tumor spheroids were fixed and stained for CD45 and DAPI. For cytotoxicity analysis, both live/dead cell staining and the CytoTox-Glo™ Cytotoxicity Assay kit (Promega Corporation, Madison, WI) were employed. The CytoTox-Glo™ Cytotoxicity Assay was quantified by the SpectraMax iD3 microplate reader (Molecular Devices, Sunnyvale, CA).

## Cn1nnc2c(C(N)=O)ncn2c1=O [temozolomide (TMZ), temozolomide]
  killing of GBM cells in 3D tumor models: efficiently kill GBM cells

From patent US20250368958A1, “CAR-EXPRESSING PLURIPOTENT STEM CELL-DERIVED NEUTROPHILS LOADED WITH DRUG NANOPARTICLES AND USES THEREOF” (Purdue Research Foundation, priority 2022, published 2025)
